Experimental data from patent US20090087417A1, “METHODS FOR PROMOTING DOPAMINERGIC NEURONAL DEVELOPMENT BY USING NG4A-SUBFAMILY AND WNT-LIGANDS” (priority 2002, published 2009).
Some results were stated once for a whole list of compounds, not compound by compound.

Tests used:
VM cultures = test: TuJ1+ neurons and proliferating clusters, proportion dopaminergic, in VM cultures; format: cell-based, rat; conditions: compared to control (FIG. 3d)
Experimental: (§1) Ventral mesencephala and cerebral cortices from embryos E13.5-14.5 obtained from timed-mated Sprague-Dawley rats were dissected, mechanically dissociated and plated at a final density of 1×10^5 cells/cm2 on poly-D-lysine coated 12- or 24-well plates in a defined, serum-free medium (N2, consisting of a 1:1 mixture of F12 and DMEM containing insulin (10 ng/ml), transferrin (100 μg/ml), putrescine (100 μM), progesterone (20 nM), selenium (30 nM), glucose (6 mg/ml), and bovine serum albumin (1 mg/ml)). Purified Type 1 astrocytes were obtained from mixed glial cultures derived from the VM or CTX of P1 rats according to a standard protocol (Wagner et al., 1999). After shaking and replating into 12-well plates, astrocytes were grown to confluency in 15% fetal bovine serum-containing media and changed to N2 medium, at which time freshly dissected VM or CTX cells were plated on top of the astrocytes at a density of 1×10^5 cells/cm2. […]
(§2) Only clearly stained cells were counted as positive cells. […] Quantitative immunocytochemical data on individual cells represent means and standard errors of counts obtained by a blinded observer from 10-20 non-overlapping fields (cells) or in the entire well (clusters), in each of 3-4 wells per condition from 3-4 independent experiments, unless stated otherwise. […]

[1] = system: E14.5 ventral mesencephalic (VM) cultures; test: Proliferating clusters containing TH+ neurons in VM cultures; format: cell-based, rat; conditions: 10 units, 7 days in vitro
Experimental: as §1, §2

Molecule: Wnt-3a
- increase in number of proliferating clusters containing TuJ1+ cells (VM cultures): 10-12 fold

B1: Wnt-1: Partially purified conditioned media from stable fibroblast cell line engineered to secrete Wnt-1 ligand (protein)
chain: ANSSGRWWGIVNIASSTNLLTDSKSLQLVLEPSLQLLSRKQRRLIRQNPGILHSVSGGLQSAVRECKWQFRNRRWNCPTAPGPHLFGKIVNRGCRETAFIFAITSAGVTHSVARSCSEGSIESCTCDYRRRGPGGPDWHWGGCSDNIDFGRLFGREFVDSGEKGRDLRFLMNLHNNEAGRTTVFSEMRQECKCHGMSGSCTVRTCWMRLPTLRAVGDVLRDRFDGASRVLYGNRGSNRASRAELLRLEPEDPAHKPPSPHDLVYFEKSPNFCTYSGRLGTAGTAGRACNSSSPALDGCELLCCGRGHRTRTQRVTERCNCTFHWCCHVSCRNCTHTRVLHECL
modifications: left off: small tags and cut ends
- increase in the number of clusters containing one or more TH+ neurons [1]: 3-8 fold
- increase in number of proliferating clusters containing TuJ1+ cells (VM cultures): 10-12 fold

B2: Wnt-5a: Partially purified conditioned media from stable fibroblast cell line engineered to secrete Wnt-5a ligand (protein)
chain: IIGAQPLCSQLAGLSQGQKKLCHLYQDHMQYIGEGAKTGIKECQYQFRHRRWNCSTVDNTSVFGRVMQIGSRETAFTYAVSAAGVVNAMSRACREGELSTCGCSRAARPKDLPRDWLWGGCGDNIDYGYRFAKEFVDARERERIHAKGSYESARILMNLHNNEAGRRTVYNLADVACKCHGVSGSCSLKTCWLQLADFRKVGDALKEKYDSAAAMRLNSRGKLVQVNSRFNSPTTQDLVYIDPSPDYCVRNESTGSLGTQGRLCNKTSEGMDGCELMCCGRGYDQFKTVQTERCHCKFHWCCYVKCKKCTEIVDQFVCK
modifications: left off: small tags and cut ends
- increase in the number of clusters containing one or more TH+ neurons [1]: 3-8 fold
